{"source": "PubChem BioAssay AID1347076", "about": "(National Center for Advancing Translational Sciences (NCATS), 2019)", "note": "“And” between values parts separate entries of the source, which are not always exact repeats. Identical values can stand only once. About 13,000 (3.2%) of roughly 400,000 compounds were called active. Inconclusive means that the source gave no clear call. Such entries were picked first, then a sample of the others. The call rests on the fitted dose curve; in most records, active means well fitted cell-killing curve with a large enough effect; inconclusive means small, poorly fitted or top-dose-only effect, or effect the other way; inactive means flat fitted curve, though single readings scatter. Potencies of inconclusive entries are doubtful fits and often do not repeat. Potency means the concentration at half of the fitted maximal effect.", "data": [{"assay": "qHTS assay for MDR1-selective chemotherapeutics: Primary screen using the drug-selected MDR subline cells KB-V1; further: nearly all actives have a fitted effect of over 60% in size", "details": "KB-V1 MDR cells viability, CellTiter-Glo, 72 h; series mostly up to 46.1 µM", "summary_of_the_method": "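KB-V1, DMEM (no phenol red) + 10% FBS; cpd pin-transferred, titration series; 72 h, 37 degrees C; CellTiter-Glo, luminescence. Data normalized, curve-fit.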", "values": [{"smiles": "CCN1CCN(c2ncnc3c2nnn3Cc2ccccc2)CC1", "Potency": "inactive"}, {"smiles": "O=C(N/N=C/c1ccc(F)cc1)c1c(O)c2ccccc2[nH]c1=O", "Potency": "active: 10.3 µM"}, {"smiles": "Cc1c(Cl)cccc1NC(=O)COC(=O)C12CC3CC(CC(O)(C3)C1)C2", "Potency": "inconclusive: 29.1 µM [rising, single point]"}, {"smiles": "Cc1ccc(-c2noc(-c3ccc(N4CCCCC4)c([N+](=O)[O-])c3)n2)cc1", "Potency": "inactive"}, {"smiles": "O=C(COC(=O)C1CC(=O)N(Cc2ccco2)C1)c1ccc(OC(=O)c2ccccc2)cc1", "note": "(centres undefined)", "Potency": "inconclusive: 29.1 µM [cytotoxic, single point]"}, {"smiles": "Cc1cc(C)cc(C(=O)N(c2ccccn2)C(C)c2ccco2)c1", "note": "(centres undefined)", "Potency": "active: 13 µM"}, {"smiles": "CC1=C(C)CC(C(=O)Nc2cccc(Cl)c2)C(C(=O)O)C1", "note": "(centres undefined)", "Potency": "inactive"}, {"smiles": "CCOC(=O)c1ccccc1NC(=O)n1ncc2cc(Cl)ccc21", "Potency": "inconclusive: 20.6 µM [rising, partial curve]"}, {"smiles": "Cc1ccc(S(=O)(=O)N2CCCC2CNC(=O)C(=O)Nc2ccccc2)cc1", "note": "(centres undefined)", "Potency": "inactive"}, {"smiles": "COc1cccc(/C=N/Nc2ncccc2[N+](=O)[O-])c1OC", "Potency": "inactive"}, {"smiles": "O=[N+]([O-])c1ccc(N2CCOCC2)cc1NCCCO", "Potency": "inconclusive: 13 µM [cytotoxic, partial curve, poor fit]"}, {"smiles": "O=C(NC(=S)Nc1ccc(Oc2ccccc2)cc1)c1ccc(Cl)cc1", "Potency": "inconclusive: 29.1 µM [cytotoxic, single point]"}, {"smiles": "CN(CC(=O)Nc1ccc(Cl)cc1)C(=O)CNC(=O)Cc1cccc2ccccc12", "Potency": "inconclusive: 29.1 µM [cytotoxic, partial curve, poor fit]"}, {"smiles": "Cc1ccc(S(=O)(=O)Nc2cc(-c3ccccc3)nn2C)cc1Cl", "Potency": "inconclusive: 0.0052 µM [rising, full curve, poor fit]"}, {"smiles": "O=C(NCC(c1ccco1)N1CCc2ccccc2C1)c1cccc(Br)c1", "note": "(centres undefined)", "Potency": "inconclusive: 23.1 µM [cytotoxic, partial curve, poor fit]"}, {"smiles": "COc1ccc(C(C)=O)cc1COC(=O)CCNS(=O)(=O)c1ccc(C(C)=O)cc1", "Potency": "inconclusive: 29.1 µM [rising, single point]"}, {"smiles": "COC(=O)c1ccccc1NC(=S)NC(C)=O", "Potency": "inconclusive: 23.1 µM [rising, single point]"}, {"smiles": "COc1cc(OC)c(OC)cc1C=Cc1ccc2ccccc2n1", "Potency": "inconclusive: 7.31 µM [cytotoxic, partial curve]"}, {"smiles": "CC(=O)c1ccccc1NC(=O)CSCc1nc2sc(C)c(C)c2c(=O)[nH]1", "Potency": "inconclusive: 10.3 µM [cytotoxic, partial curve]"}, {"smiles": "Cc1nc(CSc2ccc(Cl)cc2)cc(NCc2ccccc2)n1", "Potency": "inconclusive: 20.6 µM [cytotoxic, single point]"}, {"smiles": "O=[N+]([O-])c1ccc(S(=O)(=O)N2CCN(Cc3ccco3)CC2)cc1", "Potency": "inactive"}, {"smiles": "CN(CCOc1ccc(Cl)cc1)C(=O)c1cc([N+](=O)[O-])ccc1N1CCOCC1", "Potency": "inconclusive: 7.31 µM [cytotoxic, partial curve]"}, {"smiles": "Clc1ccc(Cn2ncc3c(NCc4ccco4)ncnc32)c(Cl)c1", "Potency": "inconclusive: 29.1 µM [cytotoxic, single point]"}, {"smiles": "O=C(C(=O)N1CCN(c2ccccc2F)CC1)c1c[nH]c2ccccc12", "Potency": "inconclusive: 18.4 µM [cytotoxic, single point]"}, {"smiles": "COc1ccccc1NS(=O)(=O)c1cc(N2Cc3ccccc3C2=N)ccc1N1CCOCC1", "Potency": "inconclusive: 6.51 µM [cytotoxic, partial curve]"}, {"smiles": "CCOc1cccc(C(=O)Nc2ccc3oc(-c4cccnc4)nc3c2)c1", "Potency": "inconclusive: 1.64 µM [cytotoxic, full curve] and inconclusive: 29.1 µM [cytotoxic, single point]"}, {"smiles": "c1ccc2c(c1)OCCOCCOc1ccccc1OCCOCCO2", "Potency": "inconclusive: 23.1 µM [cytotoxic, single point]"}, {"smiles": "c1ccc(NN(Cc2ccncc2)c2ccccc2)cc1", "Potency": "inconclusive: 25.9 µM [cytotoxic, partial curve, poor fit]"}, {"smiles": "CCN(CC)S(=O)(=O)c1ccc(N/N=C(\\C)c2ccc3c(c2)OCO3)c([N+](=O)[O-])c1", "Potency": "inconclusive: 9.2 µM [cytotoxic, partial curve]"}, {"smiles": "COc1ccccc1CNC(=O)C1CC2Cn3c(nc4cc(C)c(C)cc43)C2N1C", "note": "(centres undefined)", "Potency": "inactive"}, {"smiles": "CCCCSCCCNC(=O)c1cn(CC)c2ccc(S(=O)(=O)N3CCCCCC3)cc2c1=O", "Potency": "inconclusive: 6.51 µM [cytotoxic, partial curve, poor fit]"}, {"smiles": "CCCCOc1ccc(CNC(=O)c2cc3n(n2)CCCN(Cc2ccc(C)cc2)C3=O)cc1", "Potency": "inconclusive: 3.66 µM [cytotoxic, full curve, poor fit]"}, {"smiles": "N#CC(=C(O)COC(=O)CCC1CCCCC1)c1nc2ccccc2[nH]1", "Potency": "inactive"}, {"smiles": "COc1cccc(C=NN(C)c2c([N+](=O)[O-])cc(C(F)(F)F)cc2[N+](=O)[O-])c1O", "Potency": "inconclusive: 23.1 µM [cytotoxic, single point]"}, {"smiles": "OCC[C@H]1C[C@H](O)[C@@H](O)[C@]2(Cc3ccccc3O2)O1", "Potency": "inactive"}, {"smiles": "CC(=O)N1N=C(c2ccc(Br)cc2)CC1c1cn(C)c2ccccc12", "note": "(centres undefined)", "Potency": "inconclusive: 20.6 µM [cytotoxic, single point]"}, {"smiles": "O=C(OC(C(=O)NC1CCCC1)c1ccc(F)cc1)c1ccno1", "note": "(centres undefined)", "Potency": "inconclusive: 16.4 µM [rising, partial curve, poor fit]"}, {"smiles": "O=c1[nH]c(CSc2nnc(Nc3ccccc3)s2)nc2ccccc12", "Potency": "inactive"}, {"smiles": "COc1ccc(-c2ccc(C(C)=O)cc2)cc1[C@H]1[C@@H]2C=CCC[C@@]2(C)C(=O)N1Cc1ccccc1", "Potency": "inconclusive: 25.9 µM [cytotoxic, single point]"}, {"smiles": "CCOc1ccc2c(c1)C(c1ccc(C)cc1)=NNC(c1ccc(C)cc1)=N2", "Potency": "inconclusive: 16.4 µM [cytotoxic, single point]"}, {"smiles": "CCOC(=O)N1CCC(NC(=O)c2ccc3c(c2)N(Cc2ccc(C)cc2)CCS3)CC1", "Potency": "inactive"}, {"smiles": "CC1CC(C)CN(S(=O)(=O)c2ccc(C(=O)Nc3sccc3C(N)=O)cc2)C1", "note": "(centres undefined)", "Potency": "inconclusive: 29.1 µM [cytotoxic, single point]"}, {"smiles": "CCOC(=O)C1=C(C)C(c2ccc(OC)cc2)NC(=S)N1", "note": "(centres undefined)", "Potency": "inactive"}, {"smiles": "COc1cc2c(cc1OC)C1=C(C#N)CCC(=NC(=O)c3ccco3)N1CC2", "Potency": "inconclusive: 0.651 µM [cytotoxic, full curve, poor fit]"}, {"smiles": "O=C(Cc1ccccc1F)Nc1nc(-c2ccc(F)c(F)c2)cs1", "Potency": "inconclusive: 16.4 µM [cytotoxic, partial curve]"}, {"smiles": "O=C(CCc1ccccc1)NC1(Cc2ccccc2)CCN(CCCc2ccccc2)C1=O", "note": "(centres undefined)", "Potency": "inconclusive: 6.51 µM [cytotoxic, partial curve]"}, {"smiles": "COc1ccc(/C=C2\\SC(=O)N(CCCC(=O)Nc3ccc(C(=O)O)cc3)C2=O)cc1", "Potency": "inactive"}, {"smiles": "Cc1cc(Cl)ccc1OCC(=O)N1CCCCC1", "Potency": "inactive"}, {"smiles": "COc1ccc(NC(=O)CC2C(=O)N(c3ccc(F)cc3)C(=O)N2Cc2ccc3c(c2)OCO3)cc1", "note": "(centres undefined)", "Potency": "inactive"}, {"smiles": "O=C(NCc1ccccn1)c1cccn1-c1ncc(C(F)(F)F)cc1Cl", "Potency": "inconclusive: 29.1 µM [cytotoxic, single point]"}, {"smiles": "COc1ccc(CNC(=O)C2CC=CCC2C(=O)O)cc1OC", "note": "(centres undefined)", "Potency": "inconclusive: 14.6 µM [rising, single point]"}, {"smiles": "Cc1ccccc1CN1C(=O)[C@H]2Cc3c([nH]c4ccccc34)C(C)(C)N2C1=O", "Potency": "inconclusive: 29.1 µM [cytotoxic, single point]"}, {"smiles": "CCN(CC)S(=O)(=O)c1ccc(NC(=O)COC(=O)CNS(=O)(=O)/C=C/c2ccccc2)cc1", "Potency": "inactive"}, {"smiles": "CC(C)=C1SC(N2CCN(c3cccc(C(F)(F)F)c3)CC2)=NC1=O", "Potency": "inconclusive: 32.6 µM [cytotoxic, single point]"}, {"smiles": "Cc1ccc(C(=O)C2CCN(CC(=O)NC3CCCC3)CC2)cc1", "Potency": "inconclusive: 9.2 µM [cytotoxic, partial curve]"}, {"smiles": "COc1ccc(CCNC(=O)c2cc(S(=O)(=O)N(C)C)ccc2N2CCCC2)cc1", "Potency": "inconclusive: 29.1 µM [cytotoxic, partial curve, poor fit]"}, {"smiles": "Cc1cc(C)cc(NC(=O)C2CCCN(c3ncccn3)C2)c1", "note": "(centres undefined)", "Potency": "inactive"}, {"smiles": "CCOc1ccccc1NC(=O)COC(=O)Cc1ccc(-c2ccccc2)cc1", "Potency": "inactive"}, {"smiles": "COc1ccccc1CNC(=O)c1cc(-c2ccc(F)cc2OC)n[nH]1", "Potency": "inactive"}, {"smiles": "COC(=O)c1sc(N2C(=O)C(O)=C(C(=O)c3ccc(C)o3)C2c2cccs2)nc1C", "note": "(centres undefined)", "Potency": "inconclusive: 29.1 µM [cytotoxic, single point]"}, {"smiles": "O=C(NC(=S)N1CCN(c2ccc([N+](=O)[O-])cc2)CC1)c1ccccc1F", "Potency": "active: 20.6 µM"}, {"smiles": "O=C(c1ccco1)N1C(=O)c2cccc3cccc1c23", "Potency": "inconclusive: 29.1 µM [cytotoxic, single point]"}, {"smiles": "S=C(NCC1CCCO1)Nc1cccc(Cl)c1", "note": "(centres undefined)", "Potency": "inactive"}, {"smiles": "CCCn1c(=N)c(C(=O)NC2CCCC2)cc2c(=O)n3cccc(C)c3nc21", "Potency": "inconclusive: 20.6 µM [cytotoxic, single point]"}, {"smiles": "COc1ccc(C2CC(c3cccs3)=NN2C(=O)CCC(=O)O)cc1", "note": "(centres undefined)", "Potency": "inactive"}, {"smiles": "CCOC(=O)c1c(C)[nH]c(C)c1S(=O)(=O)N1CCCCC1", "Potency": "inactive"}, {"smiles": "CSc1nsc(SC)c1NC(=O)Nc1ccccc1C", "Potency": "inactive"}, {"smiles": "Cc1c(Nc2ccc(C=O)cc2)c(=O)n(-c2ccccc2)n1C", "Potency": "inconclusive: 29.1 µM [rising, single point]"}, {"smiles": "Cc1cc([N+](=O)[O-])nn1CCC(=O)Nc1nccs1", "Potency": "inactive"}]}]}
